Laboratory results as given in US9745288B2, “Compounds and methods for treating cancer by inhibiting the urokinase receptor” (Indiana University Research and Technology Corporation, priority 2011, dated 2017).
At least one structure is not confirmed: it was looked up by name or label, or the drawing left a doubt. Non-standard residues stand in square brackets, D forms with d. Residues, ends and D or L forms follow the SMILES beside them. *: point of attachment. 5FAM = O=C1OC2(c3ccc(O)cc3Oc3cc(O)ccc32)c2ccc(C(=O)*)cc21; Cha = N[C@@H](CC1CCCCC1)C(=O)O

By UniProt entry, the sequences of proteins in these tests, tags left out. Residues count along the entry.
UniProt Q03405, 23-305: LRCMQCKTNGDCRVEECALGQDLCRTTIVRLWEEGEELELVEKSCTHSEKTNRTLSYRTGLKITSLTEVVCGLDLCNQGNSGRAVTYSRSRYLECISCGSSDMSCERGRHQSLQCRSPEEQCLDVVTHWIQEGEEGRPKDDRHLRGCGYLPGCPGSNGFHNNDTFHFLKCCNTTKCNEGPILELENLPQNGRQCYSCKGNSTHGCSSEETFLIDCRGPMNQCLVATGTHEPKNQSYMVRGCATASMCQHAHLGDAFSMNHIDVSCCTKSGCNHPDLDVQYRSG

Target: T1, uPAR (Homo sapiens, UniProt Q03405)
T1 construct: human uPAR (suPAR, amino acids 1-283) was expressed in stably transfected Drosophila S2 cells; made in house; host or cells: Drosophila S2 cells
Assay: Fluorescence polarization assay, displacement of AE147-FAM peptide from uPAR
Conditions: estimated; uPAR titrated against the fluorescent peptide; read-out: KD of binding to uPAR
Experimental: Fluorescence Polarization Assay. The fluorescence polarization assay used fluorescent AE147-FAM peptide. uPAR was titrated against the fluorescent AE147-FAM peptide and data were fit to a sigmoidal dose-dependent curve as the FP value increases to determine the Kd of binding using Sigmaplot (Systat Software Inc., CA). Inhibitor screens were carried out in triplicates using 500 nM uPAR, 100 nM AE147-FAM, and inhibitor concentrations ranging from 0.78 μM to 100 μM in 50 μL volumes in black BD Falcon 384-well microplate. […] Polarized fluorescence intensities were measured immediately following addition of inhibitors to the protein-peptide mix at room temperature on an EnVision® Multilabel Plate Readers (PerkinElmer) with excitation and emission wavelengths of 485 nm and 530 nm, respectively.
Cloning, Expression and Purification of uPAR. uPAR was successfully cloned, expressed and purified. From 1 L of culture, nearly 12 mg of protein was expressed, which will be sufficient to conduct the experiments disclosed herein. […]
All 210 compounds were screened at initial concentration of 50 μM for displacement of AE147-FAM peptide. Eleven compounds gave polarization readings that were five times that of the standard deviation of the control peptide (FIG. 1B). […]

## CC(C)C[C@H](NC(=O)[C@H](Cc1ccc(O)cc1)NC(=O)[C@@H](CCCCN)NC(=O)[C@@H](CO)NC(=O)[C@H](Cc1ccccc1)NC(=O)[C@H](CC1CCCCC1)NC(=O)[C@H](CC(=O)O)NC(=O)[C@H](CO)NC(=O)[C@H](CCCCN)NC(=O)c1ccc2c(c1)C(=O)OC21c2ccc(O)cc2Oc2cc(O)ccc21)C(=O)N[C@@H](Cc1c[nH]c2ccccc12)C(=O)N[C@@H](CO)C(=O)N[C@@H](CO)C(=O)N[C@@H](CCCCN)C(=O)O [AE147-FAM, reference compound] (5FAM-KSD[Cha]F[dS][dK]YLWSSK-OH; N-terminus and C-terminus assumed)
  Kd: 120 nM
